Measured values as given in patent US20110217302A1.
These are yes or no findings as the source states them, for the method shown. Some results given as binding are weak or reduced against the parent protein; the word gives no strength.

The chains behind the UniProt entries cited, without tags or fusion partners. Residues count along the entry.
UniProt P07766, residues 23-207: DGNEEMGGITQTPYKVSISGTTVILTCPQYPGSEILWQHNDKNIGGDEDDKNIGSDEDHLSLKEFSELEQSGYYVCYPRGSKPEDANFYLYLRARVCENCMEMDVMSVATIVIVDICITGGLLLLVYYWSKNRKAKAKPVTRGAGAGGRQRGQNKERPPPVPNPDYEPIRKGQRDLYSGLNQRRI

Target: human CD3ε (human) (UniProt P07766)
Assay: flow cytometry on CD3+ Jurkat cells (read-out of the PK assay)

binding: binds
B1: BC3-HM1 (SEQ ID NO:84) (protein)
chain: QVQLQQSAAELARPGASVKMSCKASGYTFTRYTMQWVKQRPGQGLEWIGYINPSSGYIGYSQKFKDKTTLTADKSSSTAYMQLSSLTSEDSAVYYCARSKVYYDYDVYSMDYWGQGTSVTVSSGGGGSGGGGSGGGGSAQQIILTQSPAIMSASPGEKVTMTCSASSSVSYMHWYQQKSGTSPKRWIYDTSKLASGVPARFSGSGSGTSYSLTISSMEAEDAATYYCQQWSSNPLTFGAGTKLELKRTEPKSCDKTHTCPPCPDQDTAIRVFAIPPSFASIFLTKSTKLTCLVTDLTTYDSVTISWTRQNGEAVKTHTNISESHPNATFSAVGEASICEDDWNSGERFTCTVTHTDLPSPLKQTISRPKGQPREPQVYTLPPSRDELTKNQVSLTCLVKGFYPSDIAVEWESNGQPENNYKTTPPVLDSDGSFFLYSKLTVDKSRWQQGNVFSCSVMHEALHNHYTQKSLSLSPGKTGLNDIFEAQKIEWHEDYKDDDDKDYKDDDDKDYKDDDDKHHHHHH
